Experiment: peptide made by a vendor
Conditions: whole synthesis, reversed phase analytical HPLC

Substance: FITC-(Acp)-KARKKKLNKKGRKMAGRKRGRPKK (N-terminal FITC-Acp)
- final HPLC purity: >99% purity

From paper PMC7072583 (Biomolecules, 2020)
